In doi:10.1101/2025.11.24.690135:
Results are given in words; binding and its absence hold for the method and conditions named. In cells and extracts the contact can be indirect. Here binding means that the protein was enriched with, or labelled near, the bait; the list need not be complete.

Chains of the proteins cited; added tags and fusions are not shown. Residues count along the entry.
UniProt P18848: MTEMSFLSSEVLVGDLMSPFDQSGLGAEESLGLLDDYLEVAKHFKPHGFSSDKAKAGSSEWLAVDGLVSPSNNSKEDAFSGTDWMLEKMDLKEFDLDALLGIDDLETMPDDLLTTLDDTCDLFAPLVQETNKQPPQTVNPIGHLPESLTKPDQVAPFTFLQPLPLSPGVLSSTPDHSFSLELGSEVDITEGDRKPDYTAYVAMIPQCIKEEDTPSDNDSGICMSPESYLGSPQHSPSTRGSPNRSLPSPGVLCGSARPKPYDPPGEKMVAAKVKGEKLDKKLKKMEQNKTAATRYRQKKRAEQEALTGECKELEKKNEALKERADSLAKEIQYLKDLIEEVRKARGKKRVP
UniProt P14625, residues 22-803: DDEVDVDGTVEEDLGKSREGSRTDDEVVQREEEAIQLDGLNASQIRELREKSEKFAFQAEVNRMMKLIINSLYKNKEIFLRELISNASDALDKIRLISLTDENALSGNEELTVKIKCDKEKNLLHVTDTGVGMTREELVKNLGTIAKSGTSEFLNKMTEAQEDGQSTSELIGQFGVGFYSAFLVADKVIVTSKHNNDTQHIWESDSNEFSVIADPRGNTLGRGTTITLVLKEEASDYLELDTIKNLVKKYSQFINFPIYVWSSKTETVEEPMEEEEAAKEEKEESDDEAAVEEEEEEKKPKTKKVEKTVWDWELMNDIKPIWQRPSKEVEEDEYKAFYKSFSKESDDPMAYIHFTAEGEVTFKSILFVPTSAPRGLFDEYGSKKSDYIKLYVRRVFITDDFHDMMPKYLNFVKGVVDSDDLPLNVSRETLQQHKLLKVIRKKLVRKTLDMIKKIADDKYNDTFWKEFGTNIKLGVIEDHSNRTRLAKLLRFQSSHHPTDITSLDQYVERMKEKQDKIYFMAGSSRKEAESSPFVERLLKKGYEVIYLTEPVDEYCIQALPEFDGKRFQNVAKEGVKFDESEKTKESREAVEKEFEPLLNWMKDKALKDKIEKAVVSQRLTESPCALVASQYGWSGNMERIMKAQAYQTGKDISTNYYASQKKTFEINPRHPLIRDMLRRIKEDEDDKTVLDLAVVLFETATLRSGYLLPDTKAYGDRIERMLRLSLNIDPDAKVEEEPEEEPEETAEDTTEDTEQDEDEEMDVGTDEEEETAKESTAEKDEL
UniProt P51149: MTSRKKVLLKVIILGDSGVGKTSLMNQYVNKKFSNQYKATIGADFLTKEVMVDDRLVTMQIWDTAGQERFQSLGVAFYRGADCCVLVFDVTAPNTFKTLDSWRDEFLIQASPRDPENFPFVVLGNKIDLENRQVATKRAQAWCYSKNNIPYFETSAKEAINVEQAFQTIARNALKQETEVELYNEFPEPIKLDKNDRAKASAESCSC

Molecular target: activating transcription factor 4, endogenous (human (endogenous in iPSC-RPE)) (UniProt P18848)
Assay: affinity purification with mass spectrometry

Substance | binding
HSP90B1, endogenous (from UniProt P14625 22-803) | binds
RAB7A, endogenous (from UniProt P51149 1-207) | binds
